Measurements reported in article PMC12619835.
These are yes or no findings as the source states them, for the method shown. Binding seen in cells or lysates may run through a third protein. These calls come from enrichment with a bait or labelling near it, and not all partners need be listed. A no says only that the protein was not detected with the bait.

Chains of the proteins cited; added tags and fusions are not shown.
UniProt Q13887: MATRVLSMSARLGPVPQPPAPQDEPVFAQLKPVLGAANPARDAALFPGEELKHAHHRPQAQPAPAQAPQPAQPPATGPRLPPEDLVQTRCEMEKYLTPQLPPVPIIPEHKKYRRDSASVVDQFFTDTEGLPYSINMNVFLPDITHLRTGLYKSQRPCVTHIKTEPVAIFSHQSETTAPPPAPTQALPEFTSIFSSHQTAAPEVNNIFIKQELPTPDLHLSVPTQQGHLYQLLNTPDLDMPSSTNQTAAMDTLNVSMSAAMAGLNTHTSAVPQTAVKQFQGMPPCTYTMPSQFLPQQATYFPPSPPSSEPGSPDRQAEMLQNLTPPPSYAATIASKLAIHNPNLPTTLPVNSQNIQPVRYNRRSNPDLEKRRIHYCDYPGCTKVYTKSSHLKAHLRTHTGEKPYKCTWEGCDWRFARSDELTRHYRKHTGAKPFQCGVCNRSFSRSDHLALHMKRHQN
UniProt Q09472: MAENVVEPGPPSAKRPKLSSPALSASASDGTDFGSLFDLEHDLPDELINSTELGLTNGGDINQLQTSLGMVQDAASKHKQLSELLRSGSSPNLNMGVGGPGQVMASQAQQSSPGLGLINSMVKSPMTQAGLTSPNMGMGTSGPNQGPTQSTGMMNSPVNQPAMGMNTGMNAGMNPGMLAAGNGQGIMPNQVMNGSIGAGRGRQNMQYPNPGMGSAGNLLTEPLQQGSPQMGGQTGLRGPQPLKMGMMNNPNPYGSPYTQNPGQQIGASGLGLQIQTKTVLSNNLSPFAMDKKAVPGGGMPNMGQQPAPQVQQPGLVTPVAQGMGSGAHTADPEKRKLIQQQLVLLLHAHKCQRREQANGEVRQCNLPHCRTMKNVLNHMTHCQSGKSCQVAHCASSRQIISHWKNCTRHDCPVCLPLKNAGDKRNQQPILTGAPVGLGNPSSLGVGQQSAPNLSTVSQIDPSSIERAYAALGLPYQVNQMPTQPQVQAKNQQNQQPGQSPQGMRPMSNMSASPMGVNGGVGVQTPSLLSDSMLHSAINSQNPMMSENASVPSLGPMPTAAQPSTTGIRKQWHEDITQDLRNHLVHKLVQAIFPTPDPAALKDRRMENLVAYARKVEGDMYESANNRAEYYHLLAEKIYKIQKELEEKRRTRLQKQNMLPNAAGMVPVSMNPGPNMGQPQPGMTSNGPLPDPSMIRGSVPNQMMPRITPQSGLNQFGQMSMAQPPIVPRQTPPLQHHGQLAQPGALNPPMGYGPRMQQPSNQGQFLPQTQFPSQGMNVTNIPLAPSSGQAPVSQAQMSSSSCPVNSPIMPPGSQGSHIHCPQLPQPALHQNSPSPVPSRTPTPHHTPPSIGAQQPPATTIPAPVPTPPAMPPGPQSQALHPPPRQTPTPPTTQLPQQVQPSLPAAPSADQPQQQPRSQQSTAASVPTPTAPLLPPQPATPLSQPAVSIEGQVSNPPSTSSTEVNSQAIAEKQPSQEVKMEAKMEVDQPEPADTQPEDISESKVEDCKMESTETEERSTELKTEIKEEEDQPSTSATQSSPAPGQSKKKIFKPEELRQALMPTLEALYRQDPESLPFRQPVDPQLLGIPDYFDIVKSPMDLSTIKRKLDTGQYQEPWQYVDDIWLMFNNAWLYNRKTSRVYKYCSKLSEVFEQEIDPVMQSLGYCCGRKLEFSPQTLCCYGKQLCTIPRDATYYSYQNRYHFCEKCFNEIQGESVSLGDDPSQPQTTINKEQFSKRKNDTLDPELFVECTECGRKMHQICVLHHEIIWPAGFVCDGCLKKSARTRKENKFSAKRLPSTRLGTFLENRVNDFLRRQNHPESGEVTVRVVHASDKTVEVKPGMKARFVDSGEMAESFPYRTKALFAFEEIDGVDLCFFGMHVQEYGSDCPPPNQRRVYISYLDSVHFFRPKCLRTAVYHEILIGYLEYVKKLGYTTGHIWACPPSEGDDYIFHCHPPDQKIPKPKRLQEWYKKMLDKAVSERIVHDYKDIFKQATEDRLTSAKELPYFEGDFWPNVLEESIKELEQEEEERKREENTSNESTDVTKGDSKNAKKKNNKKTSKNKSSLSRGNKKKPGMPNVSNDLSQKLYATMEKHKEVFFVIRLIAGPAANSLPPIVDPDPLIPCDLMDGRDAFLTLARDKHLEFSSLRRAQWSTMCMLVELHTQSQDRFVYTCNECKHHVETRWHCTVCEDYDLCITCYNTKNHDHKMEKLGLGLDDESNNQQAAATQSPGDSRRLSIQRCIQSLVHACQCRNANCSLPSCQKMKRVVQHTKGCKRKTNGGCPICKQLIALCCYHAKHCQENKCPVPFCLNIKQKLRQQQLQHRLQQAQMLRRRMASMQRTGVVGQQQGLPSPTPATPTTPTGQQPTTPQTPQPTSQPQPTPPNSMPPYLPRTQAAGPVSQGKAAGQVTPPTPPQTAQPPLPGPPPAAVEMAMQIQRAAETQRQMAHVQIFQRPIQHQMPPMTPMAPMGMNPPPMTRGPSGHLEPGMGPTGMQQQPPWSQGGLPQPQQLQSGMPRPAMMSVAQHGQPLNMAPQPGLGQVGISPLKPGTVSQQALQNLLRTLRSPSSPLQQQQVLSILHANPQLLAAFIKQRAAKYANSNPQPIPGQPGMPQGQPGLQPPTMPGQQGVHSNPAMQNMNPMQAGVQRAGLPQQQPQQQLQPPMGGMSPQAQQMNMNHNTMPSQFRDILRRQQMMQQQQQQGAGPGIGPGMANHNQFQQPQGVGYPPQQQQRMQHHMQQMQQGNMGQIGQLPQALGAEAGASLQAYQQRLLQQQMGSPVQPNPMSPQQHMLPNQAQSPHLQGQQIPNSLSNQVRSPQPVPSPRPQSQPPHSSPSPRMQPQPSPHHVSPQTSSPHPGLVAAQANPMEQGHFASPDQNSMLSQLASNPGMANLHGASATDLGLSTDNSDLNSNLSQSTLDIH

Biological target: recombinant MBP-tagged KLF5 (human) (UniProt Q13887)
Test: affinity purification with mass spectrometry; purified MBP-KLF5 (MBP alone as control) held on magnetic protein G beads by an MBP antibody; Benzonase-treated, pre-cleared AsPC-1 nuclear extract, 1-2 h; washes with 120 mM NaCl; 4 °C; three replicates; only the target purified

EP300 (from UniProt Q09472 1-2414)
binding: no binding
